PMC7067379, “Mapping the S1 and S1’ subsites of cysteine proteases with new dipeptidyl nitrile inhibitors as trypanocidal agents” (PLoS Neglected Tropical Diseases, 2020)

These compounds were tested on T. cruzi Tulahuen LacZ strain, intracellular amastigote forms (assay: In vitro trypanocidal activity on intracellular amastigote forms (Tulahuen strain)). Conditions: S1 Table; ratio CC50 / EC50.
Type: cell-based, Trypanosoma cruzi
Description: Cells were evaluated in 96-well plates. Cells from the LLCMK2 lineage were plated at a concentration of 5x10^4 cells mL^-1. Trypomastigote forms of the Tulahuen LacZ strain were added at a concentration of 5×10^5 parasites mL^-1 and placed in the incubator at 37°C with 5% CO2 for 24 h. After the incubation period, the trypomastigote forms present were removed by successive washes with PBS, remaining only as intracellular amastigote forms. Compounds were added at different concentrations (1.95 μM to 250 μM serial dilutions) and incubated for 72 h. At the end of this period, the substrate CPRG (chlorophenol red β-D-galactopyranoside, 400 μM in 0.3% Triton X-100, pH 7.4) was added. […] Benznidazole was used as a positive control in the same concentrations as the substances, and DMSO as a negative control. Compounds were solubilized in DMSO. The selectivity index (SI) was calculated using the formula: […]. All statistical analyses were done with the program GraphPad Prism v.5.

SMILES	SI
CC(C)CC(C#N)NC(=O)[C@H](Cc1ccccc1)NC(=O)c1cc(C(C)(C)C)nn1C (stereo in doubt) [Compound 53, 3-(tert-Butyl)-N-((S)-1-(((S)-1-cyano-3-methylbutyl)amino)-1-oxo-3-phenylpropan-2-yl)-1-methyl-1H-pyrazole-5-carboxamide]	5.1
C[C@@H](OCc1ccccc1)[C@@H](C#N)NC(=O)[C@H](Cc1cccc(Cl)c1)NC(=O)c1cc(C(C)(C)C)nn1C [Compound 60, N-((S)-1-(((1R,2R)-2-(Benzyloxy)-1-cyanopropyl)amino)-3-(3-chlorophenyl)-1-oxopropan-2-yl)-3-(tert-butyl)-1-methyl-1H-pyrazole-5-carboxamide]	25.3
CC(C)C[C@@H](C#N)NC(=O)[C@H](Cc1ccccc1)NC(=O)c1cc(C(C)(C)C)nn1C [Compound 52, 3-(tert-Butyl)-N-((S)-1-(((S)-1-cyano-3-methylbutyl)amino)-1-oxo-3-phenylpropan-2-yl)-1-methyl-1H-pyrazole-5-carboxamide]	23.9
Cn1nc(C(C)(C)C)cc1C(=O)N[C@@H](Cc1ccccc1)C(=O)N[C@H](C#N)Cc1cccc(Cl)c1 [Compound 54, 3-(tert-Butyl)-N-((S)-1-(((S)-2-(3-chlorophenyl)-1-cyanoethyl)amino)-1-oxo-3-phenylpropan-2-yl)-1-methyl-1H-pyrazole-5-carboxamide]	2.8
Cn1nc(C(C)(C)C)cc1C(=O)N[C@@H](Cc1ccccc1)C(=O)N[C@H](C#N)Cc1ccccc1 [Compound 50, 3-(tert-Butyl)-N-((S)-1-(((S)-1-cyano-2-phenylethyl)amino)-1-oxo-3-phenylpropan-2-yl)-1-methyl-1H-pyrazole-5-carboxamide]	1.3
Cn1nc(C(C)(C)C)cc1C(=O)N[C@@H](Cc1ccccc1)C(=O)N[C@@H](C#N)Cc1ccccc1 [Compound 51, 3-(tert-Butyl)-N-((S)-1-(((R)-1-cyano-2-phenylethyl)amino)-1-oxo-3-phenylpropan-2-yl)-1-methyl-1H-pyrazole-5-carboxamide]	4.9
C[C@H](OCc1ccccc1)[C@H](C#N)NC(=O)[C@H](Cc1ccccc1)NC(=O)c1cc(C(C)(C)C)nn1C [Compound 57, N-((S)-1-(((1S,2S)-2-(Benzyloxy)-1-cyanopropyl)amino)-1-oxo-3-phenylpropan-2-yl)-3-(tert-butyl)-1-methyl-1H-pyrazole-5-carboxamide]	32.5
